In patent US20190194660A1:
These are yes or no findings as the source states them, for the method shown. Binding seen in cells or lysates may run through a third protein. Some entries that bind do so weakly or less than the wild type.

Protein sequences, listed by entry. Tags and fused reporters are not part of them. Lines headed by an entry give the natural chain unless they say otherwise; changes in a name come on top.
UniProt Q07955: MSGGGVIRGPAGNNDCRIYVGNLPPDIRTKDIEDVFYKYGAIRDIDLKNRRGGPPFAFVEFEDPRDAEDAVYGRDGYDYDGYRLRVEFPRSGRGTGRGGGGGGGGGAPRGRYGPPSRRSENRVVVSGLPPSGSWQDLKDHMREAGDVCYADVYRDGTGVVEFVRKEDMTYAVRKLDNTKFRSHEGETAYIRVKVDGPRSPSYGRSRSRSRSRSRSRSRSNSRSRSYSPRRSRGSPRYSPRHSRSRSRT

Biological target: T1, endogenous NXF1 in mouse neuronal N2A cells (mouse (endogenous in mouse neuronal N2A cells)) (UniProt Q99JX7)
T1 sequence (looked up): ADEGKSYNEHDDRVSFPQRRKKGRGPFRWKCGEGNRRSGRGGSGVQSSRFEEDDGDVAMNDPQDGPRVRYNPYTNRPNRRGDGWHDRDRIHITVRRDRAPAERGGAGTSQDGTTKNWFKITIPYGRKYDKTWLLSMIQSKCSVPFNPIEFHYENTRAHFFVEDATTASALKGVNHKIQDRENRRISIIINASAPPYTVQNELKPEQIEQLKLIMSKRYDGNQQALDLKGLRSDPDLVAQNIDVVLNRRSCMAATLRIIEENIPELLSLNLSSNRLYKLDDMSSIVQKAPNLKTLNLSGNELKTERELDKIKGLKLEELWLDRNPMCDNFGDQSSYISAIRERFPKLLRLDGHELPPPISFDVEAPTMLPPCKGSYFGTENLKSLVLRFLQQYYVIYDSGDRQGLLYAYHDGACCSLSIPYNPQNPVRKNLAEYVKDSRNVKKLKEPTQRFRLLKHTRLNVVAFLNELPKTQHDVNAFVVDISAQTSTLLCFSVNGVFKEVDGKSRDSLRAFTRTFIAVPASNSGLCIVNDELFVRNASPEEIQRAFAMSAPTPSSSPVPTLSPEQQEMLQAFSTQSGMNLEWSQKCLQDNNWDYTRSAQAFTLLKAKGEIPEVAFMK
Assay: anti-FLAG co-immunoprecipitation from transfected N2A cell extracts, anti-NXF1 western blot

binding | Substance
binds | FLAG-tagged SRSF1 11-196 double R117,118A mutant (SRSF1-m2) (from UniProt Q07955 11-196)
binds | FLAG-tagged SRSF1 aa11-196 wild type (from UniProt Q07955 11-196)
